Holding throughout (format): cell-based, human
In one series the test system is HNT-34 cells. In words: Apoptosis (caspase 3/7 activation), HNT-34. Particulars: HNT-34, rank among nine AML cell lines.
The next series deals with HL-60 cells. Nature of the series: Apoptosis (caspase 3/7 activation), HL-60. Particulars: HL-60, rank among nine AML cell lines.
Another series relates to ML-2 cells. Nature of the series: Apoptosis (caspase 3/7 activation), ML-2. The following applies: ML-2, rank among nine AML cell lines.
In a further series the test system is OCI-AML2 cells. Nature of the series: Apoptosis (caspase 3/7 activation), OCI-AML2. Particulars: OCI-AML2, rank among nine AML cell lines.
In a further series the test system is KASUMI-1 cells. Nature of the series: Apoptosis (caspase 3/7 activation), Kasumi-1. Particulars: Kasumi-1, rank among nine AML cell lines.
The subject of the next series is F36-P cells. Nature of the series: Apoptosis (caspase 3/7 activation), F36-P. Particulars: rank among nine AML cell lines.

The results in this text go back to patent US12474342B2, “Methods for treating cancer and the use of biomarkers as a predictor of clinical sensitivity to therapies” (CELGENE CORPORATION, priority 2016, dated 2025).

The amount applied is not stated for every result.

With `O=C1CCC(N2Cc3cc(CNC(=O)C(F)(F)c4ccc(Cl)cc4)ccc3C2=O)C(=O)N1` (stereo not drawn) [Compound D, 2-(4-chlorophenyl)-N-((2-(2,6-dioxopiperidin-3-yl)-1-oxoisoindolin-5-yl)methyl)-2,2-difluoroacetamide], the “Rank at 24 hr” value in the series with HNT-34 cells is on record as 1; with HL-60 cells, 3; in the series with ML-2 cells, 2; in the series on OCI-AML2 cells, 6; in the series with KASUMI-1 cells it was 7; with F36-P cells it was 8. Also, the “Rank at 48 hr” value stood at 1 in the series with HNT-34 cells; 2 in the series with HL-60 cells; 3 in the series on ML-2 cells; 5 with OCI-AML2 cells; 7 with KASUMI-1 cells; 8 in the series on F36-P cells.
